Taken from: PubChem BioAssay AID504791 (Drosophila RNAi Screening Center, 2011)

Purpose: 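Factors in Argonaute-based small RNA production and activity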 (primary screen)
Cell system: Drosophila S2-derived reporter cells
Reagents: long dsRNA against Drosophila genes, about 150-250 ng dsRNA per well (siRNA assay); about 80-120 ng (miRNA assay)
Duration: about 5 days (siRNA assay); about 4 days (miRNA assay)
Treatment: copper sulfate induction of reporters: 25 µM (siRNA assay); 200 mM stated (miRNA assay), 1-2 days before reading
Measurement: 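Dual luciferase assay: Renilla to firefly signal ratio in each well, scaled to the mean ratio of its plate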
Units: stable assay Renilla, run 1 in luminescence; stable assay firefly, run 1 in luminescence
Call rule: 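a well was a first-pass pick when its plate-scaled ratio rose above 1.5 (siRNA assay) or 1.6 (miRNA assay), or dropped below 0.6; a gene counted only if two separate dsRNAs agreed on retest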
The deposit covers about 23,000 reagents; shown is an unselected part of those with a known target gene and a result. Over the whole deposit, 199 (0.86%) are marked active. 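Plate-scaled ratios behind the calls are not deposited; printed light signals are raw; many rows marked increased or decreased are still called inactive.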 A number with no mark means an inactive call. Reagents against one gene are numbered here. Names joined by + are all predicted targets of the reagent. Not given: the direction of the score.

Hn (Henna) — stable assay Renilla, run 1: 6775; stable assay firefly, run 1: 3.87e5
Sugb (Sugar baby) — stable assay Renilla, run 1: 7664; stable assay firefly, run 1: 4.08e5
CG16863 — stable assay Renilla, run 1: 6858; stable assay firefly, run 1: 3.84e5
CG14160 — stable assay Renilla, run 1: 6830; stable assay firefly, run 1: 3.70e5
SpdS (Spermidine Synthase) — stable assay Renilla, run 1: 6103; stable assay firefly, run 1: 3.38e5
robls54B (roadblock similar 54B) — stable assay Renilla, run 1: 6591; stable assay firefly, run 1: 3.61e5
CG13380 + CG4174 #1 — stable assay Renilla, run 1: 8435; stable assay firefly, run 1: 3.29e5
CG13380 + CG4174 #2 — stable assay Renilla, run 1: 6755; stable assay firefly, run 1: 2.87e5
Pvf1 (PDGF- and VEGF-related factor 1) — stable assay Renilla, run 1: 6950; stable assay firefly, run 1: 3.41e5
GNBP1 (Gram-negative bacteria binding protein 1) #1 — stable assay Renilla, run 1: 7711; stable assay firefly, run 1: 4.11e5
GNBP1 (Gram-negative bacteria binding protein 1) #2 — stable assay Renilla, run 1: 10305; stable assay firefly, run 1: 7.36e5
CG46441 — stable assay Renilla, run 1: 7555; stable assay firefly, run 1: 2.72e5

2 entries from above, reformatted:
{"predicted target":"CG16863","dsRNA no.":1,"stable assay Renilla, run 1":6858,"stable assay firefly, run 1":3.84e5}
{"predicted target":"CG14160","dsRNA no.":1,"stable assay Renilla, run 1":6830,"stable assay firefly, run 1":3.70e5}
